The values below come from PMC8062868.

The exact form of at least one protein or probe is not confirmed. For some of these results: No signal at the amounts used counts as a negative.

Data set [1] concerns the target ScbR (gamma-butyrolactone receptor) (Streptomyces coelicolor A3(2)) (UniProt Q7AKF1). Put plainly: EMSA. As to conditions: 100 ng herring sperm DNA, EMSA: 10 mM Tris-HCl pH 7.5, 50 mM KCl, 1 mM DTT (1x LI-COR buffer) plus DTT/Tween 20 mix, 16 ul, 20 min, room temperature, recombinant protein, residues 1-215, label: IRDye 800, probe letters rebuilt from the primers and the genome, part of a longer molecule.

In data set [2] the test system is ScbR2 (Streptomyces coelicolor A3(2)). In words: EMSA. Particulars: 100 ng herring sperm DNA, EMSA: 10 mM Tris-HCl pH 7.5, 50 mM KCl, 1 mM DTT (1x LI-COR buffer) plus DTT/Tween 20 mix, 16 ul, 20 min, room temperature, recombinant protein, label: IRDye 800, probe letters rebuilt from the primers and the genome, part of a longer molecule. On the technique in general: Mobility shift assays separate free from complexed probe on a gel.

As for “GCCGTCGTCGCCGACGATCTCGAACGGGCCCATGAGATTGAACCGCACTGCCTCACACTCCTGTCCCGGCACACGGTTTGCCGTGCCGCGGATGTCGTACGTACACGGAGATCCGGCCGCCGCGGAACGCGGGACTCACCG (double strand) [pcpkN-a]”, the binding result in data set [1] is reported as “binds”; in data set [2], “no binding”.

Consider “GCCGTCGTCGCCGACGATCTCGAACGGGCCCATGAGATTGAACCGCACTGCCTCACACTCCTGTCCCGGCACACGGTTTGCCGTGCCGCGGATGTCGTACGTACACGGAGATCCGGCCGCCGCGGAACGCGGGACTCACCGGCCGCCGGGTGGCGGGACCGCGGAGTCGAGAGAAGAGACCGAGCGGTCCGTTTCATTGTGGGCCAGGAGTACCCACTGGGGACTCAC (double strand) [pcpkN]”, for which the binding result in data set [1] and in data set [2] was “binds” throughout.
